Library screening results

Amino acid sequences for entries named in this document (tags omitted).
UniProt E9BF75, entry or part of it: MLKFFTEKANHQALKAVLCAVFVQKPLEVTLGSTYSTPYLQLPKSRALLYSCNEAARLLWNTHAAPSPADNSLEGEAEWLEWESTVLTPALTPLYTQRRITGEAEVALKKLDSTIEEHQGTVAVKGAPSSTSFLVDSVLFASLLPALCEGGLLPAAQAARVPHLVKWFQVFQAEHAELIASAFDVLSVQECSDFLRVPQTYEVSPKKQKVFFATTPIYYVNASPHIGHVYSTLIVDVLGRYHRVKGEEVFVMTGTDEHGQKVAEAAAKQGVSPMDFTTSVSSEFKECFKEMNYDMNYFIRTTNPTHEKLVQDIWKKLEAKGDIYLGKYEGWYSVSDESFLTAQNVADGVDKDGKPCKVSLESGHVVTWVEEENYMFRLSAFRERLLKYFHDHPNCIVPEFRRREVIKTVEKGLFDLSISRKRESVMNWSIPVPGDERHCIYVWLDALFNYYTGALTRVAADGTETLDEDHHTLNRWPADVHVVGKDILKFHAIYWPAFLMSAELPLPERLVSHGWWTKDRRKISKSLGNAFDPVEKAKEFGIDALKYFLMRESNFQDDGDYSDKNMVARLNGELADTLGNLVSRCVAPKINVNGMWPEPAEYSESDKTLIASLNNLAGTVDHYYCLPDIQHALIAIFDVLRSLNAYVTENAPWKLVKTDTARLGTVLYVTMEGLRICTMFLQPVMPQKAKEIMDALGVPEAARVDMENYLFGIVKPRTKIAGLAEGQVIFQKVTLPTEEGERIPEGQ

A: 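Assay on Mycobacterium tuberculosis, filed only as a heat shock assay from Cornell; the read-out is not stated. The concentration is filed as 10 mM, unlikely as a test dose, so the dose is not known. Higher reads as stronger inhibition (inferred: compounds with an IC50 in retests scored well above the rest). Size under these conditions: about 69,000 compounds, about 930 of them at 50% or above in at least one test.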
B: 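Whole-cell assay for inhibitors of Mycobacterium tuberculosis growth, labelled Cornell in the record; the read-out is not stated. The concentration is filed as 10 mM, unlikely as a test dose, so the dose is not known. The record gives no direction; compounds strong in two other growth screens of this library score well above the rest, so higher reads as stronger inhibition. Of about 53,000 compounds tested this way, about 900 (1.7%) reached 50% or more in at least one test.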
C: 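Methionyl-tRNA synthetase (putative), Leishmania donovani (UniProt E9BF75). Primary screen of methionyl-tRNA synthetase; the read-out is not stated. The test concentration is not given. The values are filed as inhibition. About 68,000 compounds were tested under these conditions; 0.035% (about 24) showed 50% or more at least once.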

Results are percentages, as filed.
How 0% and 100% were set is not recorded. Most values in the screen are low, and negative values occur.
This is an unselected part of the compounds tested.

COc1c(C(=O)NCC2CCCO2)nnn1Cc1ccccc1 (configuration not stated) read A: -10.61%; C: 20.35%. CC(C)c1nc(C2CCCN(C(=O)Cc3cccnc3)C2)no1 (configuration not stated) read A: 20.65%; B: 4.848%; C: 6.536%. Result for [H][C@@]12CCC(=O)N(CCc3ccccn3)[C@]1([H])CCN(c1ncc(F)cn1)C2 was A: 3.999%; B: -4.953%. Cn1cc(-c2cc(-c3cnn(C)c3)n(CC(=O)NC3CC3)n2)cn1 read A: 11.34%; B: 10.9%; C: 12.31%. For COc1ccc(-c2cc(N)on2)cc1 the result was A: 6.036%; B: -21.09%; C: -0.8108%. COC1CCC(N(C)c2ccnc(N(C)C)n2)CC1 (configuration not stated) gave A: -27.07%; C: 10.96%. For CCN1CCNC(=O)C12CCN(S(=O)(=O)c1ccc(F)cc1)CC2 the result was A: -9.01%; C: 6.667%. Result for COc1cccc(NC(=O)NC(C)c2ccc3c(c2)CC(=O)N3)c1 (configuration not stated) was A: 17.36%; B: 25.05%; C: 3.373%.

CCN1CCC2(CC1)C(=O)N(c1ccc(C)nc1)CCN2CC(C)C gave C: 10.51%. With CSc1[nH]c(=O)c(C(=O)N2CCCC2c2cccs2)cc1C#N (configuration not stated) the screen gave A: 15.17%; B: 17.36%; C: 20.12%. With CSCC(=O)Nc1nccn1Cc1ccc(Br)cc1 the screen gave A: 103.2%; B: 106.3%; C: 16.08%. With CC(=O)N(C/C=C/c1ccccc1)CCO the screen gave A: 5.001%; B: -1.545%; C: 8.04%. With O=C(CCc1nccs1)N1CCN(c2ccc(Br)cn2)CC1 the screen gave A: 38.66%; C: 4.167%. Cc1ccc(SCCN(C)C(=O)c2cn(CCN)nn2)cc1 read A: 35.7%; B: 17.67%; C: 4.878%. Result for CCc1ccc(C(=O)N2CCCCC2Cn2cccn2)o1 (configuration not stated) was A: -33.95%; C: 11.75%. Result for [H][C@]12CCN(C(=O)c3cccc(C)c3)C[C@@]1([H])OCCN(c1ncccn1)C2 was A: 0.7389%; B: 29.44%.

CC(=O)Nc1sccc1C(=O)C(C)(C)C read A: -1.086%; B: 6.341%; C: 2.821%. O=C(O)C(F)(F)F.O=C(O)C(F)(F)F.c1cc(CNCC2OCCc3cn(CC4CC4)nc32)cs1 (configuration not stated) read A: -19.44%; B: -16.87%. With Cc1cccc(CC2CCCN(C(=O)Cc3csc(C)n3)C2)n1 (configuration not stated) the screen gave A: -13.99%; B: -22.45%; C: 7.717%. Result for CSCCC(NC(=O)c1ccc2ccccc2n1)C(=O)NC(C)C (configuration not stated) was A: 13.18%; C: 5.615%. For O=C(c1cccnc1)N1CCOC(c2ccc(-c3cncnc3)cn2)C1 (configuration not stated) the result was A: -7.706%; B: -37.53%; C: 14.06%. For CCCN1CCC(Cc2noc(-c3[nH]cnc3C)n2)CC1 the result was A: -4.588%; B: 22.38%; C: 18.05%. Cc1cnc(C)c(N2CCC(c3nccn3Cc3cscn3)CC2)n1 gave A: -3.997%; B: -0.2287%; C: 3.911%. O=C(O)C(F)(F)F.O=C(O)C(F)(F)F.c1cnc(N2CC3(CCN(Cc4ccncc4)C3)C2)nc1 gave A: -22.3%; B: 23.22%.

CCCC(=O)N(CCCN1CCOCC1)c1nc2c(F)cccc2s1 gave C: 5.036%. With Cl.Cl.[H][C@@]12CNC[C@]1([H])N(Cc1ccsc1)CCO2 the screen gave A: -10.73%; B: 2.013%.

Some entries from above, unchanged:

- CCN1CCNC(=O)C12CCN(S(=O)(=O)c1ccc(F)cc1)CC2 | A: -9.01%; C: 6.667%
- CC(=O)Nc1sccc1C(=O)C(C)(C)C | A: -1.086%; B: 6.341%; C: 2.821%
- Cc1cccc(CC2CCCN(C(=O)Cc3csc(C)n3)C2)n1 (configuration not stated) | A: -13.99%; B: -22.45%; C: 7.717%

The values are deposited in ChEMBL (CHEMBL3988442, “University of Dundee, Small-Polar-MMV Screening Library” (2021)).